Measurements published in PubChem BioAssay AID2685 (National Center for Advancing Translational Sciences (NCATS), 2010).
The campaign covered roughly 320,000 compounds. About 2,100 (0.66%) were called active. These results got no clear call from the source, so the numbers are uncertain. The call rests on the fitted dose curve; in most records, active means well fitted inhibition curve with a large enough effect in the signal ratio, with a control signal flat (not every such curve was filed as active); inconclusive means small, poorly fitted or top-dose-only effect, or effect the other way, or a change in a side signal; inactive means flat fitted curve, though single readings scatter; the % refers to the signal ratio.

Test: qHTS Assay for Lipid Storage Modulators in Drosophila S3 Cells
Details: BODIPY lipid droplet fluorescence, 18-24 h, cells fed with added oleic acid
Potency means the concentration at half of the fitted maximal effect.

Compound	Potency
CCOc1ncccc1C(=O)NCC1(N2CCOCC2)CCCCC1	inconclusive: 18.4 µM
CCCOc1ccc(C(=O)NCC2(N(C)C)CCCCC2)cc1	inconclusive: 0.58 µM
Fc1ccccc1NC1CCN(Cc2ccccc2)CC1	inconclusive: 0.651 µM
CCCN1CCC(Nc2cc(OC)cc(OC)c2)CC1	inconclusive: 14.6 µM
N#Cc1ccc(C(=O)NCC2(N3CCCCC3)CCCCC2)cc1	inconclusive: 29.1 µM
O=C(NCC1(N2CCCCC2)CCCCC1)c1cncc(Br)c1	inconclusive: 0.0052 µM
CC(C)c1ccc(NC2CCN(C(=O)OC(C)(C)C)CC2)cc1	inconclusive: 16.4 µM
O=C(NCC1(N2CCCCC2)CCCCC1)c1cccc(C(F)(F)F)c1	inconclusive: 1.16 µM
COc1cc(C(=O)NCC2(N3CCCCC3)CCCCC2)ccc1OC(F)F	inconclusive: 2.91 µM
O=C(NCC1(N2CCOCC2)CCCCC1)c1cc(=O)[nH]c2ccccc12	inconclusive: 29.1 µM
CC(C)c1ccc(C(=O)NCC2(N3CCOCC3)CCCCC2)cc1	inconclusive: 25.9 µM
O=C(NCC1(N2CCCCC2)CCCCC1)c1ccc(OC(F)F)cc1	inconclusive: 0.326 µM
CCN1CCC(Nc2ccc(Cl)cc2)CC1	inconclusive: 25.9 µM
COc1cc(C(=O)NCC2(N(C)C)CCCCC2)ccc1OC(F)F	inconclusive: 0.146 µM
CCCCOc1ccc(C(=O)NCC2(N3CCOCC3)CCCCC2)cc1	inconclusive: 3.66 µM
O=C(NCC1(N2CCOCC2)CCCCC1)c1cc2ccccc2o1	inconclusive: 7.31 µM
CCOC(=O)N1CCC(Nc2ccc(OC)cc2)CC1	inconclusive: 4.11 µM
